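Luminescence from an EWS-FLI1 target-promoter (NR0B1) reporter, set against a CMV-promoter reporter, two days after silencing single genes in TC32 Ewing sarcoma cells. Each siRNA was applied at 20 nM. A z-score of the log NR0B1-over-CMV signal, less the median of siRNAs with the same seed; more negative means a stronger specific loss of the NR0B1 reporter.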

This is part of the screen; most of the strongest results are not listed here. Sequences are the guide (antisense) strand, without overhang.

| # | siRNA | target gene | seed-corrected z-score |
|---|---|---|---|
| 1 | `AUACUGGACACUCUAAACC` | RNF115 | -1.647 |
| 2 | `AGAGCUAGCAUAACUCAGG` | SYNGR4 | -0.1574 |
| 3 | `UCAUUGCUAAUUACAGCUU` | NRL | -0.6736 |
| 4 | `UUGCAUCACAGUUAUAAUC` | REG3G | -1.413 |
| 5 | `UAUCCUUAUACUCAGGUAG` | INSL6 | 0.02216 |
| 6 | `UGCGUUUACGCUUCUUGCC` | HIST1H2BH | -0.2828 |
| 7 | `UUUAUUACCCUUUCAUCUG` | ZNF480 | 0.07519 |
| 8 | `UUGCAGUUGACCAGAAGAG` | NRIP2 | 0.5331 |
| 9 | `UCAUACAGAAGGAACAUGC` | GHITM | 0.1768 |
| 10 | `UCCGGUUGACAUCUUCUCC` | MTPN | -0.6226 |
| 11 | `AGAGCUAGCAUAAACUUGC` | FMO5 | 0.893 |
| 12 | `UACAUAGGCAAGAUCAGCG` | CERS3 | 0.5105 |
| 13 | `AUCGGUAAACUAAUCUGCC` | AGL | 0.09406 |
| 14 | `UAGUCAUUCAUUAUUAUGG` | SEC11C | 0.304 |
| 15 | `ACCGGUAUUACUAUCACGC` | PGBD4 | 0.4699 |
| 16 | `UAUAGUGGAACUUAGGAUG` | WDR70 | 0.815 |
| 17 | `AUCCGGUUCAGUGUUAGUC` | ARHGEF28 | 0.8403 |
| 18 | `UUCUCCUCAACUUCUGAUC` | CMSS1 | 0.7072 |
| 19 | `UAAUUUGACCGUGUACUAC` | PSG6 | 0.2433 |
| 20 | `UAUCAUUCCAAGUAGUCCC` | EXOSC6 | 0.3962 |
| 21 | `AACUCGAUCUUCACAGUGC` | MATN3 | 0.5562 |
| 22 | `UCCCUGGACAGUUAUCUGC` | PRAMEF7 | -0.2995 |
| 23 | `AUAUAGAGGAGUACCAGGC` | CYP3A43 | 0.1221 |
| 24 | `UCGUAGAUCACUAUUAAGG` | CEP57 | 0.1442 |
| 25 | `UUCAUCGUCUGGAAGGAGC` | RCVRN | -1.639 |
| 26 | `UCGUAGACAACUUAAACUC` | ARHGEF6 | -0.04836 |
| 27 | `UAGACCUCCAGGCCUGUAC` | LOC644285 | -1.34 |
| 28 | `UAUGGAUGUACUGCACAUG` | TIMP3 | 0.9112 |
| 29 | `UAUGUAACGAUCAUAACCC` | OR10K2 | -0.8525 |
| 30 | `AUGAUAACGAGUUUCGUCC` | TFAM | 0.5881 |
| 31 | `ACAUCUUCAGUGUUAAUUG` | APITD1 | 0.6327 |
| 32 | `UCAAUAGUUAAUAUUCUCC` | COL21A1 | 0.2642 |
| 33 | `UUCAUAUUUGCCUCUUUCG` | CBX3 | 0.05402 |
| 34 | `UUAGGGUACAUUCACCUUC` | RHOG | 0.4606 |
| 35 | `UAACUUCCGUGUGAUCAGC` | VEPH1 | -0.5826 |
| 36 | `UCAGGCACGAGCUUCCACU` | TMEM198B | 0.976 |
| 37 | `UACAUUCCCACUGUACAUC` | SARAF | 0.08547 |
| 38 | `AAAUUAAAUACAUCUGCAG` | ERCC8 | 1.496 |
| 39 | `UCCCAGUAAACUCAUAUCC` | IL20RA | 0.6822 |
| 40 | `UGCGUGAAAAACAUCUGCC` | CAND1 | 0.5243 |
| 41 | `UCAUGAGUAGAGAAAACUG` | CCDC192 | 1.465 |
| 42 | `UUGGUAAAGAAACCUUCCC` | PFN2 | 1.219 |
| 43 | `UCAGGGUUUAUUUGGAUUC` | NHLH2 | -0.5136 |
| 44 | `AUAUCUCGAAUAUCUUUCC` | NAF1 | -0.4525 |
| 45 | `UUCUUAAGUACAGAUGCCU` | ZFP57 | -1.718 |
| 46 | `UUUAGUUCACUUGCUAUAG` | COG5 | -0.1969 |
| 47 | `UAAUACCUAAAAUACAUGC` | LOC644841 | -0.7808 |
| 48 | `UAAGUUUCUCCCUGCAUUC` | TRIM64 | -0.7266 |
| 49 | `UAUAGAGACACGUUAAGUG` | TMEM222 | -0.1055 |
| 50 | `UACGAGUUUAAAGCGAUGC` | IFNGR1 | -0.5532 |
| 51 | `AAAUGUCCAAAGUCUUUGG` | DIRC3 | -0.8814 |
| 52 | `AAGGGUUCAAGAAAUAUCC` | POC1B | -0.5966 |
| 53 | `UUGUAAACCAGCCUGAUAU` | PLA2G15 | -0.2594 |
| 54 | `UUUCGGUCUCUGAUCACUC` | IARS | -0.1856 |
| 55 | `UUUGGGUUUCGUGGUAAGG` | ING5 | 1.101 |
| 56 | `UAUGGAUUCAGGGAUGCUC` | GLYATL2 | 0.7345 |
| 57 | `UCCCUGUUAUAGUCAGUGC` | OR11H1 | 0.7034 |
| 58 | `UCCUUAAUCAGGUUGUUGC` | MED24 | 0.6508 |
| 59 | `UCUUCAACAAAACCGAACC` | MBNL1-AS1 | -1.177 |
| 60 | `UGAGGGUAAAGUUCCAUCC` | MKL2 | -1.102 |
| 61 | `UAGGUCAUCAUGACGCGCU` | PER1 | -1.809 |
| 62 | `UUCUCGUCUACCACAUGCU` | RGS19 | -0.3981 |
| 63 | `AAAGUAGAGGUUGCCGUUC` | L1CAM | -0.8336 |
| 64 | `UUCACCAACAUGCAAGUUC` | TMSB4X | 0.3096 |
| 65 | `UUUUCUAUCCCUCUCUCUC` | ANK1 | -0.03018 |
| 66 | `UUCUUCAUCUCGAAUGAGC` | PNMA5 | -0.5652 |
| 67 | `UAAGCUUCUUCCGUAAUGC` | IPMK | 0.1744 |
| 68 | `UUUAAUGUGACACUUGUCC` | TERF1P2 | -0.1355 |
| 69 | `UUGUUGUUGUCAGAUAUUG` | CLDN10 | -0.8334 |
| 70 | `UCUUUGCUCUUGGUCAUGG` | SEPN1 | -0.03656 |
| 71 | `UCAGAGUCCUCGCUAUUCG` | KIR2DL1 | 0.5366 |
| 72 | `UCGAGAAUGAUCUUGCUCU` | BCLAF1P1 | -1.054 |
| 73 | `UUGGGUAUGAGGUAAGCUG` | LOC648934 | -0.4425 |
| 74 | `UUCUCCUCCAUCUCGCUGG` | GPC1 | 0.6807 |
| 75 | `UUAGAGAGAUCAUACGUGC` | RIPK2 | 0.2857 |
| 76 | `UUUGGUGGUGGACUAGUGU` | TNP2 | -0.3573 |
| 77 | `UCAAUUUGCCCGAUCUUCA` | RPS14P9 | 1.613 |

Some entries from above, unchanged:

siRNA,target gene,seed-corrected z-score
UUCUUAAGUACAGAUGCCU,ZFP57,-1.718
UUUAAUGUGACACUUGUCC,TERF1P2,-0.1355
UCAUACAGAAGGAACAUGC,GHITM,0.1768
UCAGAGUCCUCGCUAUUCG,KIR2DL1,0.5366
UCCCAGUAAACUCAUAUCC,IL20RA,0.6822
UCAUGAGUAGAGAAAACUG,CCDC192,1.465
UUUAUUACCCUUUCAUCUG,ZNF480,0.07519

Data taken from PubChem BioAssay AID1159506, deposited by NCATS (2015).